Measurements taken from article PMC4742183.

Protein sequences, listed by entry. Tags and fused reporters are not part of them. Lines headed by an entry give the natural chain unless they say otherwise; changes in a name come on top.
UniProt P56693: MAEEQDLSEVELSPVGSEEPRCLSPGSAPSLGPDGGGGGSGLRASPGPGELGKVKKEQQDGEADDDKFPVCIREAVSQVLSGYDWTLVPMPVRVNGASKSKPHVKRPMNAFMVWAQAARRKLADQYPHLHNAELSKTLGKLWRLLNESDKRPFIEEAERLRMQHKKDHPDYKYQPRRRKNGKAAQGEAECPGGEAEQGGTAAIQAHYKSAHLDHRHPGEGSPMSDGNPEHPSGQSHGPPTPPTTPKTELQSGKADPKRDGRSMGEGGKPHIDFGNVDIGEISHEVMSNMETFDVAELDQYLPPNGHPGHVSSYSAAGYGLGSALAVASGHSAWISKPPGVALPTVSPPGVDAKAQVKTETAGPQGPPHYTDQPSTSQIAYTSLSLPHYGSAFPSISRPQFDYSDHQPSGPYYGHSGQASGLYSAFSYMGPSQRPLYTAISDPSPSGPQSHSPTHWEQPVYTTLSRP
UniProt Q969H0: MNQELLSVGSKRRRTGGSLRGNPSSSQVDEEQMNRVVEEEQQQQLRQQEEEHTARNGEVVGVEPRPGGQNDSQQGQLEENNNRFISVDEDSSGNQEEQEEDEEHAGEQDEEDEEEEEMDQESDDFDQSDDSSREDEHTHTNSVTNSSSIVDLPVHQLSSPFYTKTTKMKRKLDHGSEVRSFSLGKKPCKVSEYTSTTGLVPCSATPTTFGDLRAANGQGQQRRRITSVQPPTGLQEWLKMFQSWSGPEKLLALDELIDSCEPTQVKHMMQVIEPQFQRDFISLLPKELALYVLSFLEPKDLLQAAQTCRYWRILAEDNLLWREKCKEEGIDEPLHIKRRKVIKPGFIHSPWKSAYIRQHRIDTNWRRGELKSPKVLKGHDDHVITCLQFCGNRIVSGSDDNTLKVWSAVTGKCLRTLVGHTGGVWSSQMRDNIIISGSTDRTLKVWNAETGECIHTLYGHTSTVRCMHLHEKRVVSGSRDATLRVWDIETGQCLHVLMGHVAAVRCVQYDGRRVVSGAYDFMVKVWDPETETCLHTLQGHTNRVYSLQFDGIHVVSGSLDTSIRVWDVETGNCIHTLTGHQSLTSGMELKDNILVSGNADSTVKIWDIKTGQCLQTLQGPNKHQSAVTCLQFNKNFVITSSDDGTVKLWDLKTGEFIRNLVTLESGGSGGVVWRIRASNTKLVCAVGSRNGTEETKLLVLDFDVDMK
UniProt P49841: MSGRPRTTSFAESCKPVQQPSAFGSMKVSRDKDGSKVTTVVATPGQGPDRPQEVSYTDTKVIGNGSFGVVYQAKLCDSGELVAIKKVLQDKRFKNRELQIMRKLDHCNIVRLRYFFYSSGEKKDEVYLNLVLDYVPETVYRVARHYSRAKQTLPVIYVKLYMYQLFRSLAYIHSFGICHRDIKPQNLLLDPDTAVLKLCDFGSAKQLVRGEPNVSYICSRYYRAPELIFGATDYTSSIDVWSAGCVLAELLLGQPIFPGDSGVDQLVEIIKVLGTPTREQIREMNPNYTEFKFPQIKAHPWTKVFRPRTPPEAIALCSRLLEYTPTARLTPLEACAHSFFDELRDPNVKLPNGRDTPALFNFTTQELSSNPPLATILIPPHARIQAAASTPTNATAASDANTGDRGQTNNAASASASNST

Assays:
[1] = biological target: HA-tagged SOX10 (SRY-related HMG box-containing factor 10) (UniProt P56693); assay: co-IP; 293T cells co-transfected for 24 h, lysed in RIPA buffer (50 mM Tris-HCl pH 8.0, 100 mM NaCl, 0.5% Nonidet P-40, 5 mM EDTA, 2 mM DTT); anti-HA or anti-Myc agarose 2 h to overnight at 4°C, four washes with RIPA buffer; Western blot
[2] = biological target: SOX10-2A (SOX10 with mutated CPD motif) (UniProt P56693); assay: as above

| binding [1] | binding [2] | Substance |
| --- | --- | --- |
| binds | – | Fbxw7α with the F-box deleted (from UniProt Q969H0) |
| – | no binding | Myc-GSK3β (glycogen synthase kinase 3β) (from UniProt P49841 1-420) (enzyme) |
| – | no binding | Myc-tagged Fbxw7α (from UniProt Q969H0 1-707) |

These are yes or no findings as the source states them, for the method shown. Binding seen in cells or lysates may run through a third protein. For part of these data: Binding calls can cover weak binding; strength is not graded here.
